Measurements reported in PubChem BioAssay AID1259424 (University of Nebraska Medical Center, 2018).
In all, the deposit lists about 14,000 reagents; shown is an unselected part. 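Higher correlation or smaller distance means closer resemblance to KSR1 loss; control wells, including KSR1 knockdowns, recur on many plates.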 The record does not give: the time to read-out.

Screen: 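Find knockdowns that reproduce the expression shifts seen after KSR1 loss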 (primary screen)
System: human HCT116 colon cancer cells
Knock-down reagent: siRNA pool against human genes, 50 nM
Measurement: 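Log2 levels of six mRNAs (branched-DNA multiplex), adjusted by two reference genes and the non-targeting median, then scored against the average KSR1 knockdown pattern as Pearson r and euclidean distance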
Scale: mean correlation with KSR1 profile and KSR1 correlation: higher = expression change more like KSR1 knockdown; mean distance from KSR1 profile: higher = expression change less like KSR1 knockdown

| gene | mean correlation with KSR1 profile | mean distance from KSR1 profile | KSR1 correlation, replicate 1 | KSR1 correlation, replicate 2 | KSR1 correlation, replicate 3 |
| --- | --- | --- | --- | --- | --- |
| TEX35 | 0.168 | 1.8 | 0.0992 | 0.421 | -0.182 |
| PRAME | -0.541 | 2.84 | -0.648 | -0.564 | -0.584 |
| YARS1 | -0.128 | 1.88 | 0.178 | -0.0391 | -0.562 |
| NLGN2 | -0.423 | 3.56 | -0.446 | -0.551 | -0.291 |
| NRGN | -0.351 | 2.04 | -0.436 | -0.473 | -0.449 |
| HIP1 | 0.0772 | 2.6 | 0.104 | -0.121 | 0.119 |
| RDH14 | -0.274 | 2.08 | -0.349 | -0.248 | -0.184 |
| NUDT22 | -0.0035 | 2.17 | -0.19 | -0.188 | 0.275 |
| HCRTR2 | 0.175 | 2.67 | 0.13 | 0.222 | -0.183 |
| PPP1R3C | -0.365 | 1.69 | -0.322 | 0.102 | -0.268 |
| MCOLN3 | 0.477 | 0.932 | 0.533 | 0.393 | 0.461 |
| KIF5A | -0.564 | 1.86 | -0.644 | -0.658 | -0.261 |
| MYCLP1 | -0.305 | 2.16 | -0.0472 | -0.00146 | -0.504 |
| CBX7 | -0.163 | 1.11 | -0.362 | -0.0996 | -0.141 |
| SLC39A14 | -0.0746 | 1.32 | 0.0106 | -0.207 | 0.0104 |
| NLRP14 | 0.54 | 1.32 | 0.702 | 0.261 | 0.0125 |
| BCL2L1 | -0.235 | 3.18 | -0.568 | -0.208 | -0.275 |
| USP13 | -0.378 | 1.69 | -0.142 | -0.556 | -0.488 |
| TOGARAM1 | -0.0565 | 2.49 | -0.147 | -0.0885 | 0.011 |
| LAMA5 | 0.14 | 1.84 | -0.185 | -0.0504 | 0.454 |
| ATXN7L3 | 0.145 | 3.2 | 0.133 | 0.194 | 0.321 |
| SPC25 | -0.18 | 2.33 | -0.498 | -0.413 | 0.132 |
| REG4 | 0.125 | 2.65 | -0.0378 | 0.0752 | 0.258 |

Part of the list above, reformatted:
gene	mean correlation with KSR1 profile	mean distance from KSR1 profile	KSR1 correlation, replicate 1	KSR1 correlation, replicate 2	KSR1 correlation, replicate 3
TEX35	0.168	1.8	0.0992	0.421	-0.182
PRAME	-0.541	2.84	-0.648	-0.564	-0.584
YARS1	-0.128	1.88	0.178	-0.0391	-0.562

Additional entries:
| gene | mean correlation with KSR1 profile | mean distance from KSR1 profile | KSR1 correlation, replicate 1 | KSR1 correlation, replicate 2 | KSR1 correlation, replicate 3 |
| --- | --- | --- | --- | --- | --- |
| RPL36 | -0.618 | 2.47 | -0.797 | -0.922 | -0.463 |
| ABCA2 | -0.673 | 2.88 | -0.249 | -0.894 | -0.618 |
| IL7 | -0.1 | 1.15 | 0.0275 | -0.339 | 0.229 |
| MRPS2 | -0.714 | 3.14 | -0.514 | -0.539 | -0.706 |
| GRIN2D | -0.564 | 2.49 | -0.328 | -0.695 | -0.724 |
| TBCK | 0.709 | 2.59 | 0.565 | 0.841 | 0.498 |
| TMCC2 | -0.959 | 1.57 | -0.689 | -0.813 | -0.828 |
| SLC39A1 | 0.347 | 2.32 | 0.35 | 0.064 | 0.063 |
| ECPAS | 0.0318 | 1.81 | 0.0489 | 0.235 | -0.0994 |
| TYMS | -0.503 | 2.82 | -0.481 | -0.405 | -0.673 |
| BRK1 | 0.523 | 1.73 | 0.507 | 0.395 | 0.461 |
| IRF4 | 0.191 | 2.67 | 0.303 | 0.425 | 0.0936 |
| ZIM2 | -0.183 | 1.39 | 0.214 | -0.526 | -0.245 |
| CD7 | -0.361 | 4.34 | -0.319 | -0.335 | -0.561 |
| HSF2 | -0.354 | 4.54 | -0.123 | -0.101 | -0.615 |
| DLGAP3 | 0.287 | 2.04 | 0.198 | 0.297 | 0.427 |
| EIF3C | -0.304 | 7.2 | -0.205 | -0.345 | 0.222 |
| CHRNA10 | 0.0258 | 3.37 | 0.153 | -0.0677 | 0.0782 |
| UGP2 | -0.367 | 1.91 | -0.324 | -0.188 | -0.789 |
| ANKIB1 | -0.292 | 3.73 | -0.335 | -0.223 | -0.303 |
| GPSM3 | 0.609 | 2.25 | 0.357 | 0.371 | 0.614 |
| TSPAN16 | 0.0704 | 0.904 | 0.0619 | -0.48 | -0.234 |
| LRP5 | -0.188 | 1.68 | -0.23 | -0.0669 | -0.383 |
| GPR52 | 0.61 | 2.41 | 0.658 | 0.563 | 0.497 |
| WIPI2 | -0.289 | 1.98 | 0.0443 | -0.264 | -0.509 |
| RPS6KC1 | -0.895 | 2.59 | -0.926 | -0.762 | -0.0681 |
| ATOSA | -0.648 | 5.2 | -0.516 | -0.582 | -0.586 |
